Test results as given in article PMC7988490, “Molecular insights into replication initiation in a multipartite genome harboring bacterium Deinococcus radiodurans” (The Journal of Biological Chemistry, 2020).

Columns and labels:
[1] = target: T1, drDnaB (DnaB) (Deinococcus radiodurans R1 (ATCC13939)) (UniProt Q9RWW6); test: EMSA; details: nonspecific, EMSA: 50 mM Tris-HCl pH 8.0, 75 mM KCl, 5 mM MgSO4, 0.1 mM DTT, ~30 nM 32P-DNA, 37 C 15 min, recombinant protein, protein details: N-terminal 6xHis (pET28a), label: 32P 5' end, probe letters rebuilt from the primers and the genome
T1 sequence (looked up, limits assumed): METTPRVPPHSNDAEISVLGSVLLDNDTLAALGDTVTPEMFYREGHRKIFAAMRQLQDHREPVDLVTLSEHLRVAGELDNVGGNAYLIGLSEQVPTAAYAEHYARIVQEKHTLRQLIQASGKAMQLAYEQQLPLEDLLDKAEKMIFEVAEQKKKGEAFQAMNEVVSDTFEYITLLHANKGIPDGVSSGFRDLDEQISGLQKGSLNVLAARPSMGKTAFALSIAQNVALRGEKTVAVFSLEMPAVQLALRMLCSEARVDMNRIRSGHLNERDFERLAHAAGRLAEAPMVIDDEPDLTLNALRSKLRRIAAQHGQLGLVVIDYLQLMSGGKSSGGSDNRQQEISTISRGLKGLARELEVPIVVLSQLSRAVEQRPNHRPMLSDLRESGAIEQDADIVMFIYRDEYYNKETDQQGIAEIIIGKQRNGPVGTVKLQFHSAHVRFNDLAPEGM

[2] = target: T2, DnaAΔCt (drDnaA without domain IV) (Deinococcus radiodurans R1 (ATCC13939)) (UniProt Q9RYE7); test: EMSA; details: tested with and without ATP; EMSA: 50 mM Tris-HCl pH 8.0, 75 mM KCl, 5 mM MgSO4, 0.1 mM DTT, +/- 1 mM ATP, ~30 nM 32P-DNA, 37 C 15 min; recombinant protein; protein details: N-terminal 6xHis (pET28a); label: 32P 5' end; probe letters rebuilt from the primers and the genome
T2 sequence (looked up, limits assumed): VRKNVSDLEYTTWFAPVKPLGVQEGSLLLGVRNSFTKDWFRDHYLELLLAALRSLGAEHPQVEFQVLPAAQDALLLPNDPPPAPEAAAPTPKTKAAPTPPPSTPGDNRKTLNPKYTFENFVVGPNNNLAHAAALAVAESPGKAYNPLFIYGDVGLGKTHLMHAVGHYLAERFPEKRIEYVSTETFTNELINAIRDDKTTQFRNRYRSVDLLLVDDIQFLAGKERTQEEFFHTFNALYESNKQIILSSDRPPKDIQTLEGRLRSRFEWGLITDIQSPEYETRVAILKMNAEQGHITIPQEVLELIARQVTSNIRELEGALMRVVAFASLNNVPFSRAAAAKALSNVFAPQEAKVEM

GCGAGCTCCCGTTCCAAATGGCGGTGAAACTTTTCACTTTCTGTGGAAAAACCTGTGGATATCCTGTGGATAAGTGCCAAAATCCTGTGGATAAAATTGTGGATAACTTGCCCCTAAAAATGCCCTGTGGATAACCCCCCAAGTTATCCACAGCTTATCCATCAGGTTTTCGGGGTTATCCACACCCCCTCTGTGGAAAACTTTTGTCCTCTGGGACGGCTTCAAGGTGAGTTTTCCACAGTATCCACAGGCCCTACTACTGCTACTACTGTTTTTATTTTTTAAGAAGAACAGTTAACAGATAGGCCAGGTGACCTTGGGCCTTCCACAAAGGACTCTGGAAAATTCCAAAAGGAGGTTCCGAGTTGAGATCCAACGTGAGGCGTCTCAGGACTGATCGTTCTTCAGATTCCAGACCCGAAGCTCAGAACAATTTCATGTCCAGCACGAAGTTTTCCCCAGGTTGTGGATAAGTTCTGTGGATAAGTCGGGAGTTGGCTGCAAAAACGGATCCCG (double strand) [oriCI 500 bp (13 DnaA boxes)]
Kd ([1]; 1 mM ATP): 8.23 µM | Kd ([1]; no ATP, +/- 1 mM ATP): 8.89 µM | binding result [2]: no binding

For part of these data: A negative result means that nothing was seen under these conditions. Where a protein sequence is shown, tags need not be part of it. For part of these data: For at least one entry, the source does not settle the construct or the ends of the probe.
